The values below come from paper PMC3429922.

Sequences of proteins named here, by UniProt entry; tags and fusion partners are left off. A change or cut given only in a name is not applied to a line headed by its entry.
UniProt Q2VWH6: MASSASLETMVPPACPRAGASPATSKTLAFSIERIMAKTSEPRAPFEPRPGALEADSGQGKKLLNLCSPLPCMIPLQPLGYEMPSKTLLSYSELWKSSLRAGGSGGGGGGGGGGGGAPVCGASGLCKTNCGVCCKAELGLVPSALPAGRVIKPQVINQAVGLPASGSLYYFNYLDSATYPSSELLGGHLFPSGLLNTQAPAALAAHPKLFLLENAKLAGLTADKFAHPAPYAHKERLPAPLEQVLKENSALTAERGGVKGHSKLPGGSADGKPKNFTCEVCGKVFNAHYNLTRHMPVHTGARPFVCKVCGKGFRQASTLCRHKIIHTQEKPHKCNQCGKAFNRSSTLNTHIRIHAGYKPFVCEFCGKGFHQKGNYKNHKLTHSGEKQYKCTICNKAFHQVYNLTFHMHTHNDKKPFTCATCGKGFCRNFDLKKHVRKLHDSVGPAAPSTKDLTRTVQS

The data set has as its target FEZL (forebrain embryonic zinc finger-like) (Bos taurus) (UniProt Q2VWH6). The experiment in a line: EMSA competition. Conditions: Promega gel shift assay system, COS7 nuclear extract, 4-20% TBE gel (supershift), 6% retardation gel (competition), pH and temperature not stated, protein in an extract. Background: Mobility shift assays separate free from complexed probe on a gel.

Construct, isoform or probe ends are uncertain for at least one entry. Where cells or extracts were used, other partners may take part. A weaker result is weaker than the reference pair of the same experiment. At least one verdict was read from the data and is not stated in words by the source.

Turning to “CACCCCCCCCCCTTTTTTTTTTTTGA (double strand) [10C]”, under “long C stretch bound stronger than shorter ones”, the binding result is recorded as “binds”. “CACCCCCCCCCTTTTTTTTTTTTGA (double strand) [9C]”: where the note is “relative to 10C”, the binding result is “binds more weakly”. “CACCCCCCCCTTTTTTTTTTTTGA (double strand) [8C]”: for the setting “relative to 10C”, the binding result was “binds more weakly”.
